Measured values as given in patent US12290519B2, “Anti-inflammatory coupling compound drug, and preparation method therefor and use thereof” (COVAL BIOPHARMA (SHANGHAI) CO., LTD., priority 2021, dated 2025).
For at least one compound, name, drawing or mass did not settle the structure.

Assay: Hydrolysis rate / drug release rate of the compounds (release of JAK inhibitor, HPLC)
Type: physicochemical
Conditions: % release of JAK inhibitor from sample in acetonitrile/water=7/3 (v/v), 37° C. constant temperature shaker, sampled days 1-4, HPLC
Procedure: Analysis Method for Hydrolysis Rate of Compounds of the Present Invention
1. Preparation of Standard Working Curve Solution
About 10 mg of JAK inhibitors (tofacitinib and baricitinib) reference substances were weighed into a 25 mL volumetric flask, acetonitrile/water=7/3 (v/v) was added to dissolve and dilute to the marked volume, serving as a stock solution. The stock solution was diluted with a suitable dilution factor to obtain linear solutions of each concentration: 0.0002 mg/mL, 0.0004 mg/mL, 0.004 mg/mL, 0.04 mg/mL, and 0.08 mg/mL.
About 10 mg of JAK inhibitors (Oclacitinib, Ruxolitinib, Delgocitinib, and Upadacitinib) reference substances were weighed into a 25 mL volumetric flask, acetonitrile/water=7/3 (v/v) was added to dissolve and dilute to the marked volume, serving as a stock solution. […]
About 5 mg of the sample (the compound prepared in the present invention) was weighed into a 20 mL volumetric flask, acetonitrile/water=7/3 (v/v) was added to dissolve and dilute to the marked volume, serving as a stock solution. […] The test samples were taken at the same time on days 1, 2, 3, and 4 respectively. the release amount of JAK inhibitor in the sample was calculated according to the sample weight and JAK inhibitor standard curve. […]

SMILES: COc1ccc2c(c1)c(CC(=O)n1ccc3c(N(C)[C@H]4CN(C(=O)CC#N)CC[C@H]4C)ncnc31)c(C)n2C(=O)c1ccc(Cl)cc1 [Ex. 12, 3-((3R, 4R)-3-((7-(2-(1-(4-chlorobenzoyl)-5-methoxy-2-methyl-1H-indol-3-yl)acetyl)-7H-pyrrolo[2,3-d]pyrimidin-4-yl)(methyl)amino)-4-methylpiperidin-1-yl)-3-oxopropanenitrile]
- Release Rate (%/day): 18.94 %/day

SMILES: Cc1c(Cl)cccc1Nc1ccccc1C(=O)n1ccc2c(N(C)[C@H]3CN(C(=O)CC#N)CC[C@H]3C)ncnc21 [Ex. 5, 3-((3R, 4R)-3-((7-(2-((3-chloro-2-methylphenyl)amino)benzoyl)-7H-pyrrolo[2,3-d]pyrimidin-4-yl)(methyl)amino)-4-methylpiperidin-1-yl)-3-oxopropanenitrile]
- Release Rate (%/day): 4.7 %/day
